Measurements taken from patent US20030175273A1 (Kyowa Kirin, published 2003).
These are yes or no findings as the source states them, for the method shown. Some entries that bind do so weakly or less than the wild type.

What was measured:
[1] = molecular target: T1, BSA-Compound 1 (human CCR4 extracellular region peptide Compound 1 conjugated with BSA) (human); assay: ELISA on BSA-Compound 1; reference antibody
T1 sequence (peptide, conjugated to BSA (bovine serum albumin) through SMCC): DESIYSNYYLYESIPKPC

[2] = molecular target: T2, human CC chemokine receptor 4 (CCR4) on CCR4/EL-4 cells (human) (UniProt P51679); assay: flow cytometry on CCR4/EL-4 cells; reference antibody
T2 sequence: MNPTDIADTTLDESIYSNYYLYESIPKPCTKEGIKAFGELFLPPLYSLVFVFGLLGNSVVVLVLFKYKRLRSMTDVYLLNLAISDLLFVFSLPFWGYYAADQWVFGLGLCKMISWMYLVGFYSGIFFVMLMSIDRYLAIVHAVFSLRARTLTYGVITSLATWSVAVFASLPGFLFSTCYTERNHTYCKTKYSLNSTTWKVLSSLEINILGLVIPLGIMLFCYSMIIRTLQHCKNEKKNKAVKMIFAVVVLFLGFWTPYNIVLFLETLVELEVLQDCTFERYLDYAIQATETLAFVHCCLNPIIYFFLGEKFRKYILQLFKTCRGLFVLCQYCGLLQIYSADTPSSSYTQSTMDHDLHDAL

B1: anti-CCR4 human chimeric antibody KM2760 (antibody, human IgG1, V domains shown)
VH: EVQLVESGGDLMKPGGSLKISCAASGFIFSNYGMSWVRQTPDMRLEWVATISSASTYSYYPDSVKGRFTISRDNAENSLYLQMNSLRSEDTGIYYCGRHSDGNFAFGYWGRGTLVTVSA
VL: DVLMTQTPLSLPVSLGDQASISCRSSRNIVHINGDTYLEWYLQRPGQSPKLLIYKVSNRFSGVPDRFSGSGSGTDFTLKISRVEAEDLGVYYCFQGSLLPWTFGGGTRLEIRR
Question: How did the binding [1] turn out when B1 was run?
Answer: Its binding is “binds”.

Question: And the binding [2]?
Answer: The binding was “binds”.
